Patent publication US20030162221A1
No constants are given. Whether binding was seen depends on the method and setting. In cells and extracts the contact can be indirect. Some results given as binding are weak or reduced against the parent protein; the word gives no strength. Where a sequence is shown, tags or fusion partners need not be part of it.

Legend:
[1] = biological target: T1, Mms2 (Saccharomyces cerevisiae) (UniProt P53152); experiment: anti-FLAG co-IP, LC-MS/MS
T1 sequence (looked up): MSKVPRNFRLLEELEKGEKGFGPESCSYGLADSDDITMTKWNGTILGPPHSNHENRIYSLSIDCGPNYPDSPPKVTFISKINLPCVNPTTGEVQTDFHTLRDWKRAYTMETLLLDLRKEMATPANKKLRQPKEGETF

[2] = biological target: T2, Rad18 (Saccharomyces cerevisiae) (UniProt P10862); experiment: anti-FLAG co-IP, LC-MS/MS
T2 sequence (looked up): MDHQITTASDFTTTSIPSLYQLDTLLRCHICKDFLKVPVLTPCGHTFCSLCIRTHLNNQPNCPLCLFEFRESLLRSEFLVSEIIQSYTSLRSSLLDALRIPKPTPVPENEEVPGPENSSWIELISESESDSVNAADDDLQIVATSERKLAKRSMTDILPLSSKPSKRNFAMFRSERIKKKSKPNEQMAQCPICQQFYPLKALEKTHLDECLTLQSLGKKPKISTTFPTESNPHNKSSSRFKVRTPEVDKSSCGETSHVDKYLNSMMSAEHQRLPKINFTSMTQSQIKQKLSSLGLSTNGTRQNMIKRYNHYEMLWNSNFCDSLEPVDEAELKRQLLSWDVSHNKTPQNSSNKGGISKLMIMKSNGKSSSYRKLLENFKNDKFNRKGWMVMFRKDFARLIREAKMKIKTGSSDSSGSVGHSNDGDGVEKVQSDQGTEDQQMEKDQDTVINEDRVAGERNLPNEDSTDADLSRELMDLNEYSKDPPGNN

[3] = biological target: T2, Rad18 (Saccharomyces cerevisiae); experiment: anti-FLAG co-IP, LC-MS/MS; pair by Table 2

- binding [1]: binds
- binding [2]: binds
- binding [3]: binds
B1: Ubc13 (protein, Saccharomyces cerevisiae, UniProt P52490 1-153, looked up)
chain: MASLPKRIIKETEKLVSDPVPGITAEPHDDNLRYFQVTIEGPEQSPYEDGIFELELYLPDDYPMEAPKVRFLTKIYHPNIDRLGRICLDVLKTNWSPALQIRTVLLSIQALLASPNPNDPLANDVAEDWIKNEQGAKAKAREWTKLYAKKKPE
